In publication PMC10450504:

Target: T1, mouse CD9-GFP expressed in HEK293T/17 cells (mouse) (UniProt P40240)
T1 sequence: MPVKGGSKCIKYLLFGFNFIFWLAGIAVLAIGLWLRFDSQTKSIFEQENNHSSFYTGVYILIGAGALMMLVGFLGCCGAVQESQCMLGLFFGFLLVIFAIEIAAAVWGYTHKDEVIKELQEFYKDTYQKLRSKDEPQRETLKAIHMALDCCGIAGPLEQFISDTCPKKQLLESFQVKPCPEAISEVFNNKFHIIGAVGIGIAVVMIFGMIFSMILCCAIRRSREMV
Assay: affinity purification with mass spectrometry; anti-GFP co-immunoprecipitates from co-transfected HEK293T/17 cells digested on the beads with trypsin; LC-MS/MS (timsTOF Pro), search against the Mus musculus database

binding: binds
B1: mouse Juno expressed in HEK293T/17 cells (receptor, UniProt Q9EQF4 20-221)
chain: GDKLLSVCMNSKRHKQEPGPEDELYQECRPWEDNACCTRSTSWEAHLEEPLLFNFSMMHCGLLTPACRKHFIQAICFHECSPNLGPWIQPVVPNGQEEQRVWGVPLCQEDCEDWWRACHSSLTCKSNWLHGWDWSEEKKHCPAHEPCLPFSYHFPTPDDLCEKIWNNTFKASPERRNSGRCLQKWFEPTLSNPNVEVALHFA

These are yes or no findings as the source states them, for the method shown. In cells and extracts the contact can be indirect. Here binding means that the protein was enriched with, or labelled near, the bait; the list need not be complete. Tags and fused reporters may be left off the sequences shown.
